Results reported in patent US20130336988A1, “METHODS FOR TREATING EARLY STAGE OR MILD NEUROLOGICAL DISORDERS” (NEW YORK UNIVERSITY, priority 2010, published 2013).
These are yes or no findings as the source states them, for the method shown. Some results given as binding are weak or reduced against the parent protein; the word gives no strength.

The chains behind the UniProt entries cited, without tags or fusion partners. Residues count along the entry.
UniProt P07174, residues 30-425: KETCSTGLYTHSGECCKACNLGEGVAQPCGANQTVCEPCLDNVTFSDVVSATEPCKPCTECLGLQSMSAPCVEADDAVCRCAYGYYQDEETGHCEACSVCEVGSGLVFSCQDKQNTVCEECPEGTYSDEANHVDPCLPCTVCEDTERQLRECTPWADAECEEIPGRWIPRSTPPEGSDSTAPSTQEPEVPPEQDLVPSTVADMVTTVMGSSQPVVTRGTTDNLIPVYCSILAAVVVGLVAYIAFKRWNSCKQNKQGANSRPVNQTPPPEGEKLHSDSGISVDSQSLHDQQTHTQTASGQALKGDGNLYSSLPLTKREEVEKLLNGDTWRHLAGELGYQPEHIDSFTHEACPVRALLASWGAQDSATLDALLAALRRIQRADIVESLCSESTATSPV
UniProt D3ZW09, residues 118-1163: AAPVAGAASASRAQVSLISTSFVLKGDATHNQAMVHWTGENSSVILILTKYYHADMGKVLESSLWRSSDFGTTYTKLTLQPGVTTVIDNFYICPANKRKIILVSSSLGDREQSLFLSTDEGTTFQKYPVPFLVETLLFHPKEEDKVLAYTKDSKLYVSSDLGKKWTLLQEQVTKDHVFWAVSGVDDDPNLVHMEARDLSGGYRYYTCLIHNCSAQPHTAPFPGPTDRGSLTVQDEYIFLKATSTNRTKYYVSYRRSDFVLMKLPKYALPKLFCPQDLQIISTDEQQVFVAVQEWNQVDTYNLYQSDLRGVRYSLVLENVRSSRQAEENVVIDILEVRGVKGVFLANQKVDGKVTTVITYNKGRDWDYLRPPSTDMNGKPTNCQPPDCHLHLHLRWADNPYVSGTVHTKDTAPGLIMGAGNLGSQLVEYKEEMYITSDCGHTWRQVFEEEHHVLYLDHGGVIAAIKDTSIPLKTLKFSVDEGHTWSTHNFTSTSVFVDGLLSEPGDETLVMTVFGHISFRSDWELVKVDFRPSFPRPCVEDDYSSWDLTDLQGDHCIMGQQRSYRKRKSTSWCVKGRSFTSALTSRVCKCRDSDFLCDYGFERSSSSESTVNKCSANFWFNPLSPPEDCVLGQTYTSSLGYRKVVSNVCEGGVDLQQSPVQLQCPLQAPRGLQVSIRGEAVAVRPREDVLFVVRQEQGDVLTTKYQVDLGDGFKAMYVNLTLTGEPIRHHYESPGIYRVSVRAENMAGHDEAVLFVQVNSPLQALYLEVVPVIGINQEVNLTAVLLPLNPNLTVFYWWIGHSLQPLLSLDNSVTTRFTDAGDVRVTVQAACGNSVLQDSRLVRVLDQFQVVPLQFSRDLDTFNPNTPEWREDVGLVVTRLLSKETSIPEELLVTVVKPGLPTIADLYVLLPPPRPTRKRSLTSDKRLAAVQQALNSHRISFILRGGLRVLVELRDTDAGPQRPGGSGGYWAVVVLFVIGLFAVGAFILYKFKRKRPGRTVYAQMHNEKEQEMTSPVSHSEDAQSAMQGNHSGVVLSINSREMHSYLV

Target: p75^NTR in embryonic rat brain lysates (rat) (UniProt P07174)
Assay: embryonic rat brain lysates; method not given

- binding: binds
Substance: SorCS2 in embryonic rat brain lysates (from UniProt D3ZW09 118-1163) (receptor)
